{
  "sequences": {"note": "Amino acid sequences for entries named in this document (tags omitted). A change or cut given only in a name is not applied to a line headed by its entry.", "UniProt P54368": "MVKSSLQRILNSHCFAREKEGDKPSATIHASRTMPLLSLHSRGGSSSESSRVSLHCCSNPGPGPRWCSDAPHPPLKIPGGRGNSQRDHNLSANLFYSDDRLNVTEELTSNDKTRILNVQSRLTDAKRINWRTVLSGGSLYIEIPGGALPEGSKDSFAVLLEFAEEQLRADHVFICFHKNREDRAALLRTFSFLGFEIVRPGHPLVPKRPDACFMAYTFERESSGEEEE"},
  "source": "paper PMC7846742",
  "binders": {"B1": {"name": "His6-ODC-Ctag (human Ornithine Decarboxylase) (enzyme, UniProt P11926 2-421)", "chain": "NNFGNEEFDCHFLDEGFTAKDILDQKINEVSSSDDKDAFYVADLGDILKKHLRWLKALPRVTPFYAVKCNDSKAIVKTLAATGTGFDCASKTEIQLVQSLGVPPERIIYANPCKQVSQIKYAANNGVQMMTFDSEVELMKVARAHPKAKLVLRIATDDSKAVCRLSVKFGATLRTSRLLLERAKELNIDVVGVSFHVGSGCTDPETFVQAISDARCVFDMGAEVGFSMYLLDIGGGFPGSEDVKLKFEEITGVINPALDKYFPSDSGVRIIAEPGRYYVASAFTLAVNIIAKKIVLKEQTGSDDEDESSEQTFMYYVNDGVYGSFNCILYDHAHVKPLLQKRPKPDEKYYSSSIWGPTCDGLDRIVERCDLPEMHVGDWMLFENMGAYTVAAASTFNGFQRPTIYYVMSGPAWQLMQQFQ"}},
  "key": {"[1]": {"biological_target": "AviTag-OAZ(K153A,V198A)-GSY-SPM (human | Neisseria meningitidis serogroup B (strain MC58)) (UniProt P54368)", "assay": "cross-linking; NeissLock: Ca2+-induced aspartic anhydride on OAZ reacts with the docked partner; purified proteins mixed at 10 µM each or as indicated (AZI 2.5 µM each; Fig. 4b 0.5 µM each; 30 µM ODC with 10 µM OAZ-Y-SPM), 37 °C, HBS pH 7.4 with 2 mM TCEP, 10 mM CaCl2 unless varied (pH 6.5-8.5, 0.5-10 mM Ca2+, TBS, lyophilised probe); SDS-PAGE with Coomassie, intact ESI-MS, tryptic LC-MS/MS; both purified"}, "[2]": {"biological_target": "AviTag-OAZ(K153A,A215R)-GSY-SPM (human | Neisseria meningitidis serogroup B (strain MC58)) (UniProt P54368)", "assay": "cross-linking; NeissLock: Ca2+-induced aspartic anhydride on OAZ reacts with the docked partner; purified proteins mixed at 10 µM each or as indicated (AZI 2.5 µM each; Fig. 4b 0.5 µM each; 30 µM ODC with 10 µM OAZ-Y-SPM), 37 °C, HBS pH 7.4 with 2 mM TCEP, 10 mM CaCl2 unless varied (pH 6.5-8.5, 0.5-10 mM Ca2+, TBS, lyophilised probe); SDS-PAGE with Coomassie, intact ESI-MS, tryptic LC-MS/MS; both purified"}},
  "note": "No constants are given. Whether binding was seen depends on the method and setting. Some binding calls cover weakened binding; strength is not graded here. Sequences can lack the tags named with a protein.",
  "data": [
    {"binder": "B1", "values": [
      {"measurement": "binding", "setting": "[1]", "result": "binds"},
      {"measurement": "binding", "setting": "[2]", "result": "binds"}
    ]}
  ]
}
